Experimental data taken from the OPERA property sets (Mansouri et al. 2018).

logP: -4.22
SMILES: NCCCC(N)C(=O)O (stereo unspecified)
